# Measurements as given in US20240010704A1, “CHIMERIC SENSOR PROTEIN AND METHODS OF USE THEREOF” (Universitaet Leipzig, priority 2020, published 2024).
# Numbering of substitutions follows the chain as printed.
# B1: CIRL^H>A-NRS-LexA: NTF release sensor for dmCIRL, GPS cleavage site mutated (His to Ala at −2) (protein)
# chain: MKLCILLAVVAFVGLSLGETGFPKSLSVLNSRCAHKQSCGVLAATSMFGDPCPGTHKYLEAHYQCISAAQTSTTTNRPSPPPWVLSNGPPIFGNGSGLIHPPGVGAGAPPPPRLPTLPGVVGISGNPGLFNVPPQHTAVTHSTPSSSTTAVGGGRLKGGATSTTTTKHPAGRHDGLPPPPQLHHHHNHHGEDTASPTKPSSKLPAGGNATSPSNTRILTGVGGSGTDDGTLLTTKSSPNRPPGTAASGSVVPGNGSVVRTINNINLNAAGMSGGDDESKLFCGPTHARNLYWNMTRVGDVNVQPCPGGAAGIAKWRCVLMKRIPDSGYDEYDDDISSTTPAPSGGDCLHNSSSCEPPVSMAHKVNQRLRNFEPTWHPATPDLTQCRSLWLNNLEMRVNQRDSSLISIANDMSEVTSSKTLYGGDMLVTTKIIQTVSEKMMHDKETFPDQRQREAMIMELLHCVVKTGSNLLDESQLSSWLDLNPEDQMRVATSLLTGLEYNAFLLADTIIRERSVVQKVKNILLSVRVLETKTIQSSVVFPDSDQWPLSSDRIELPRAALIDNSEGGLVRIVFAAFDRLESILKPSYDHFDLKSSRSYAILSNDSDVNAGEIQQRLRILNSKVISASLGKGRHIQLSQPITLTLKHLKTENVTNPTCVFWNYIDHAWSANGCSLESTNRTHSVCSCNALTNFAILMDVVDEHQHSLFTMFDGNMRPRIDTAAKHQLRNDFQIHSVRGIKNPGDEDNGEPPANVKYVITGIILVIIALAFFGMVLSTQRKRSGPPKLKALTARQQEVFDLIRDHISQTGMPPTRAEIAQRLGFRSPNAAEEHLKALARKGVIEIVSGASRGIRLLQEEEEGLPLVGRVAAGEPLLAQQHIEGHYQVDPSLFKPNADFLLRVSGMSMKDIGIMDGDLLAVHKTQDVRNGQVVVARIDDEVTVKRLKKQGNKVELLPENSEFKPIVVDLRQQSFTIEGLAVGVIRNGDWLEFPGIRRPAGIPGDLAPPTDVSLGDELHLDGEDVAMAHADALDDFDLDMLGDGDSPGPGFTPHDSAPYGALDMADFEFEQMFTDALGIDEYGGASRYLDPAFLYKVVSSATMDYKDHDGDYKDHDIDYKDDDDKHRST
# modifications: Full-length NTF release sensor for dmCIRL (GPS cleavage site mutated)
# B2: CIRL-NRS^S3-LexA: NTF release sensor for dmCIRL, S3 cleavage site mutated (disabled γ-secretase recognition) (protein)
# chain: B1 chain with A688H, V773K
# modifications: Full-length NTF release sensor for dmCIRL (S3 cleavage site mutated)
# System: Drosophila melanogaster fly head homogenates
# Test: Western blot analysis of fly head homogenates expressing sensor variants
# Details: FIG. 10C
Molecule,GPS cleavage,S3 proteolytic processing
B1,entirely blocked,–
B2,–,quenched
